Measured values from patent publication CN109988240A.
Residue numbers refer to the chain shown, from its start. These are yes or no findings as the source states them, for the method shown. Some binding calls cover weakened binding; strength is not graded here. Blank lines part the entries; values can stand above or below the binder they belong to.

Sequences of proteins named here, by UniProt entry; tags and fusion partners are left off. Residues count along the entry.
UniProt P51654, residues 25-559: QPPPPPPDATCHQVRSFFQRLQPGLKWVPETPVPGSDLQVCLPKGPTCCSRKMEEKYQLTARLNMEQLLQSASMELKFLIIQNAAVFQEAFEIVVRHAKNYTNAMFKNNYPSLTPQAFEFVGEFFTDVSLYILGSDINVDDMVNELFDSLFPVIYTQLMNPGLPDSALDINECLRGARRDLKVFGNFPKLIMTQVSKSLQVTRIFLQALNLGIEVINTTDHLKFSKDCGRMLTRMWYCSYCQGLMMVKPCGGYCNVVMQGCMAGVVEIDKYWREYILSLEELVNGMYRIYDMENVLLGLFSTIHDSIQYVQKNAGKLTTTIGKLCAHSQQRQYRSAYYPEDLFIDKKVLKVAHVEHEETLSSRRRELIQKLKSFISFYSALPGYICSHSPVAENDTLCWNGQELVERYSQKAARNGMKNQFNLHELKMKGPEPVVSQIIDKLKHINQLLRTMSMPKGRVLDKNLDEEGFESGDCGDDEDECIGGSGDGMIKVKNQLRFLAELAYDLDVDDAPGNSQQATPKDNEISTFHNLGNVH

Legend:
[1] = target: 人GPC-3抗原 (磷脂酰肌醇蛋白聚糖3, Glypican-3) (human) (UniProt P51654); test: indirect ELISA, GPC-3 antigen coated at 0.2 μg/ml
[2] = target: 人GPC-3抗原 (磷脂酰肌醇蛋白聚糖3, Glypican-3) (human) (UniProt P51654); test: indirect ELISA on coated GPC-3, goat anti-human IgG-HRP detection

binding [1]: binds
B1: 鼠单克隆抗体GPC3#4(杂交瘤细胞株DWX-1分泌) (antibody, V domains shown)
VH: QVQLQQSGAELVRPGAPVTLSCKASGYTFTDYEMHWVKQTPVNGLEWIGAIDPQTGNTAFNQKFKGKAILTADKSSSTAYMEVRSLTSEGSAVYYCTRFYSLTYWGQGTLVTVSA
VL: DVLMTQVPLSLPVSLGDQASISCRSSQSIVHSNGNTYLQWYLQKPGQSPKLLIYKVSNRFSGVPDRFSGSGSGTYFTLKISRVEAEDLGVYYCFQGSHFPYAFGGGTKLEIK

binding [2]: binds
B2: 人源化抗体AB13E3 (antibody, V domains shown)
VH: QVQLVQSGAEVKKPGASVKVSCKASGYTFTDYEMHWVKQAPGQGLEWIGAIDPQTGNTAFNQKFKGRVTLTRDKSSSTVYMELSSLRSEDTAVYYCTRFYSLTYWGQGTLVTVSS
VL: B1 VL with V7S, S14T, D17Q, Q18P, K44R, L88V, L109V

binding [2]: binds
B3: 人源化抗体AB13E4 (antibody, V domains shown)
VH: B2 VH with K12V, V20L, A40T, V68A, V79A, L83V, D90G
VL: B1 VL with V7S, S14T, D17Q, Q18P, L88V
